Test results taken from article PMC11024145.

Sequences of proteins named here, by UniProt entry; tags and fusion partners are left off.
UniProt A0A3S8Q1W1, entry or part of it: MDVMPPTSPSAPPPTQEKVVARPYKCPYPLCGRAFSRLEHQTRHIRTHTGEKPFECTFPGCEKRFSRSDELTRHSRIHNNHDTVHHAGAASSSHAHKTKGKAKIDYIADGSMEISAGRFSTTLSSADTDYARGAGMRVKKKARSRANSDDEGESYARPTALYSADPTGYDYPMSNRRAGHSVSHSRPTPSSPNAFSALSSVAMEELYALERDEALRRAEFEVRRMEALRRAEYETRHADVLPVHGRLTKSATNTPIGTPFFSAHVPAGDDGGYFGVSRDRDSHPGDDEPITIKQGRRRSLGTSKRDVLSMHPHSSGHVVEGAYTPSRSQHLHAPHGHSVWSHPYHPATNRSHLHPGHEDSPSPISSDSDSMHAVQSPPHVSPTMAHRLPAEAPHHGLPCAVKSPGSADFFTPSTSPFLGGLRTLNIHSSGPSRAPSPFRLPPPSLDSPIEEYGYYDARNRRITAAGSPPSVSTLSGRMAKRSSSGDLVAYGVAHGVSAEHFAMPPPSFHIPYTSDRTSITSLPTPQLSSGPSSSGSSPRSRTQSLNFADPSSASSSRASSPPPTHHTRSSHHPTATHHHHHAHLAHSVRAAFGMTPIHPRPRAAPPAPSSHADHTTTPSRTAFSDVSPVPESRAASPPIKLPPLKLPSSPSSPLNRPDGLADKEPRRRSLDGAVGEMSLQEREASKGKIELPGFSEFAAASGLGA

Tests used:
[1] = target: T1, His-CreA (carbon catabolite repressor CreA) (Ganoderma lucidum) (UniProt A0A3S8Q1W1); experiment: EMSA; settings: EMSA: 10 mM Tris-HCl pH 8.0, 1 mM DTT, 0.1 mM EDTA, 50 mM KCl, 5% glycerol, temperature not stated, recombinant protein, protein details: His (plasmid creA-28a), label: 5' biotin on both strands
[2] = target: T1, His-CreA (carbon catabolite repressor CreA) (Ganoderma lucidum); experiment: competition with a labelled probe; settings: unlabeled competitor against biotin-labeled N1; EMSA: 10 mM Tris-HCl pH 8.0, 1 mM DTT, 0.1 mM EDTA, 50 mM KCl, 5% glycerol; temperature not stated; recombinant protein; protein details: His (plasmid creA-28a)

TGGCTGGGGC (double strand) [cbs promoter probe]
binding result ([1]; protein titration 10, 5, 2 ug (Results give 100, 50, 20 mM), shift falls with less protein): binds

TGGCTGGGGC (double strand) [unlabeled cold cbs promoter probe]
binding result [2]: binds

TGGCTGTTGC (double strand) [mutated cbs promoter probe]
binding result [1]: no binding

The exact form of at least one protein or probe is not confirmed. For part of these data: No signal at the amounts used counts as a negative.
